Binding data for one molecule are collected here from paper PMC8295330.

These are yes or no findings as the source states them, for the method shown. In cells and extracts the contact can be indirect. Some entries that bind do so weakly or less than the wild type.

The target of this experiment is T1, PPM1G (Protein phosphatase, Mg2+/Mn2+ dependent 1 G) (human (endogenous in Hep3B)) (UniProt O15355).
T1 sequence: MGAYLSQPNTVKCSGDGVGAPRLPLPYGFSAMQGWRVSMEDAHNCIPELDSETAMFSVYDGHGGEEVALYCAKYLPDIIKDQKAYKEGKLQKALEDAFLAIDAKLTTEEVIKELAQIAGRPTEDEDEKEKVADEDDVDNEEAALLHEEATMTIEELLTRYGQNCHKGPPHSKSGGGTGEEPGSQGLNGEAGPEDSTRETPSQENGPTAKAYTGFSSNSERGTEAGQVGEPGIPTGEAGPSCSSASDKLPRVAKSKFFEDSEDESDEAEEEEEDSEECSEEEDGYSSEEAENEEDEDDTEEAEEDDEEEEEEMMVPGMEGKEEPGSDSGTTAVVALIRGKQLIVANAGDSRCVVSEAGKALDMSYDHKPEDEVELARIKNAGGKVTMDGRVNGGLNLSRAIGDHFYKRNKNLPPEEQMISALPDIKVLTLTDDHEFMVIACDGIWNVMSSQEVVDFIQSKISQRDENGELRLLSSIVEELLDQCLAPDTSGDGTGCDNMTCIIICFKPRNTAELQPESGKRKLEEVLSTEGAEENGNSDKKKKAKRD
As to the kind of experiment: co-IP; antibodies against PPM1G or SRSF3 for immunoprecipitation from cell lysate (Hep3B per the title of Fig. 5), IgG as negative control, about 2% input; lysis with 150 mM NaCl, 1% Triton X-100, washes with 350 mM NaCl; western blot. A general note: In western blotting, separated proteins are transferred to a membrane and probed.

B1: SRSF3 (protein, UniProt P84103 1-164)
chain: MHRDSCPLDCKVYVGNLGNNGNKTELERAFGYYGPLRSVWVARNPPGFAFVEFEDPRDAADAVRELDGRTLCGCRVRVELSNGEKRSRNRGPPPSWGRRPRDDYRRRSPPPRRRSPRRRSFSRSRSRSLSRDRRRERSLSRERNHKPSRSFSRSRSRSRSNERK
As for B1, the binding entry is “binds”.
